The list shows a part of the results.
How the values were obtained:
Assay in all cases: log2 fold change, soluble protein after heating vs DMSO (PISA); higher = thermal stabilisation; K562 lysate, 10 uM; active = over 0.2 and 3.5 SD of the protein, either way, in both replicates (recomputed)
[1] = compound: C1=CC=C(C=C1)[C@H](COC2=CC3=C(C=C2)NC(=O)N3)NC(=O)C4=CC=CN(C4=O)CC5=CC(=C(C=C5)F)F
Procedure, shortened: (§1)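 The values are log-two fold changes in thermal stability compared with solvent controls and come from duplicates. They were obtained by TMTpro 16plex LC-MS/MS, with channel sums equalised, on the supernatant after 21,000xg for 90 min. That supernatant came from crude K562 extract at 1 mg/mL protein treated with 10 μM compound for 30 min, heated for 3 min across 48°C-58°C, pooled and brought to 0.5% NP-40 at 4°C.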

The chains behind the UniProt entries cited, without tags or fusion partners. Where a name states a change or a piece, a line headed by the entry shows the natural chain unless it says otherwise.
UniProt Q14814: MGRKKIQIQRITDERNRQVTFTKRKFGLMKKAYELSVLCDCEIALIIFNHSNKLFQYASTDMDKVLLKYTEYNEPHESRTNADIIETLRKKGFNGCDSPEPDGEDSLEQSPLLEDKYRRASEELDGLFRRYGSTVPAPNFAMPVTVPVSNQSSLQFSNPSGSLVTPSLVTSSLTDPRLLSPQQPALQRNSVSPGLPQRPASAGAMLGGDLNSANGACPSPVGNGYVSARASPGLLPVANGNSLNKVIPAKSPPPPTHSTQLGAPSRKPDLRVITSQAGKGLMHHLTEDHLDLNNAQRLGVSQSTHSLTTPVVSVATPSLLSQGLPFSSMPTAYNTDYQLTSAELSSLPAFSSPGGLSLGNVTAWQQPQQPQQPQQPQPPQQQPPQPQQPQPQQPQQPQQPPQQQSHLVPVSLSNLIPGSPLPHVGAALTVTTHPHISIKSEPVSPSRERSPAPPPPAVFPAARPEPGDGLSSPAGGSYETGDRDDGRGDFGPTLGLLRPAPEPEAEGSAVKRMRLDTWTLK
UniProt O95140: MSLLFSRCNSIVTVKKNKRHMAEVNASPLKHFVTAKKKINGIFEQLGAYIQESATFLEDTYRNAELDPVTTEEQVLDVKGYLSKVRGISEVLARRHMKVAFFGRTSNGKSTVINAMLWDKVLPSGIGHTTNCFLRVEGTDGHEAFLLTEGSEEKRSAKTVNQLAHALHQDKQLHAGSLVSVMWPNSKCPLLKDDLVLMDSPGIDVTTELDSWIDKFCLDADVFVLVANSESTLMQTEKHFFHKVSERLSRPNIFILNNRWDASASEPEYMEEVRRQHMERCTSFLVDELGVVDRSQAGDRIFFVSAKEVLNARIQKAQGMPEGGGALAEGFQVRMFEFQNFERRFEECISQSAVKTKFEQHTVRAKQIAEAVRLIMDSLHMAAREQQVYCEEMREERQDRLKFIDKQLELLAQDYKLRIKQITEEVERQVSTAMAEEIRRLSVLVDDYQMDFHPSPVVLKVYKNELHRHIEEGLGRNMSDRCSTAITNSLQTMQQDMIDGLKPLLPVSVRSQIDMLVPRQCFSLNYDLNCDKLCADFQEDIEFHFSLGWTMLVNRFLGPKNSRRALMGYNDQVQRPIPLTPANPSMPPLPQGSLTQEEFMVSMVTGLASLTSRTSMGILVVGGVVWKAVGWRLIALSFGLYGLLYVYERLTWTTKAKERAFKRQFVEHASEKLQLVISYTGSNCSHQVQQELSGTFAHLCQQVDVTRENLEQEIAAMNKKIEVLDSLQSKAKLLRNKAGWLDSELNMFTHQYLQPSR
UniProt Q8IWA4: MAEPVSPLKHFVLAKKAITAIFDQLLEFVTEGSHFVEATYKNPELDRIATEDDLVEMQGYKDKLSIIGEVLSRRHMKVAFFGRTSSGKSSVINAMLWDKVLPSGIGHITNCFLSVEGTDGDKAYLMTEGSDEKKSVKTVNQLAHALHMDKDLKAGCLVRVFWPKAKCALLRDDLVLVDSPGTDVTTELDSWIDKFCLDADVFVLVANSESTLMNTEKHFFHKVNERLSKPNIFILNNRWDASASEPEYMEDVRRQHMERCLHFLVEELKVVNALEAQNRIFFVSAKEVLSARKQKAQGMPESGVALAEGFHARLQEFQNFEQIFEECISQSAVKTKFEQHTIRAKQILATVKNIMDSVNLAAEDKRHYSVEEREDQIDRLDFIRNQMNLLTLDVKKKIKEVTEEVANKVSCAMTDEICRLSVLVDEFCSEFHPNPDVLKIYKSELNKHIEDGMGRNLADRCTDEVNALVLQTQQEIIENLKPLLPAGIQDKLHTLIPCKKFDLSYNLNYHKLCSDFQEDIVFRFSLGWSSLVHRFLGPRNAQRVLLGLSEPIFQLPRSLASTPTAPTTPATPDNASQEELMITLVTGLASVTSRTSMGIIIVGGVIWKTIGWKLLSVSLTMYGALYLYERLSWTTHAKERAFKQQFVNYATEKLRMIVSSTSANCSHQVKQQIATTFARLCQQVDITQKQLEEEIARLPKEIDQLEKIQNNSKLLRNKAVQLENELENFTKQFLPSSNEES
UniProt O60318: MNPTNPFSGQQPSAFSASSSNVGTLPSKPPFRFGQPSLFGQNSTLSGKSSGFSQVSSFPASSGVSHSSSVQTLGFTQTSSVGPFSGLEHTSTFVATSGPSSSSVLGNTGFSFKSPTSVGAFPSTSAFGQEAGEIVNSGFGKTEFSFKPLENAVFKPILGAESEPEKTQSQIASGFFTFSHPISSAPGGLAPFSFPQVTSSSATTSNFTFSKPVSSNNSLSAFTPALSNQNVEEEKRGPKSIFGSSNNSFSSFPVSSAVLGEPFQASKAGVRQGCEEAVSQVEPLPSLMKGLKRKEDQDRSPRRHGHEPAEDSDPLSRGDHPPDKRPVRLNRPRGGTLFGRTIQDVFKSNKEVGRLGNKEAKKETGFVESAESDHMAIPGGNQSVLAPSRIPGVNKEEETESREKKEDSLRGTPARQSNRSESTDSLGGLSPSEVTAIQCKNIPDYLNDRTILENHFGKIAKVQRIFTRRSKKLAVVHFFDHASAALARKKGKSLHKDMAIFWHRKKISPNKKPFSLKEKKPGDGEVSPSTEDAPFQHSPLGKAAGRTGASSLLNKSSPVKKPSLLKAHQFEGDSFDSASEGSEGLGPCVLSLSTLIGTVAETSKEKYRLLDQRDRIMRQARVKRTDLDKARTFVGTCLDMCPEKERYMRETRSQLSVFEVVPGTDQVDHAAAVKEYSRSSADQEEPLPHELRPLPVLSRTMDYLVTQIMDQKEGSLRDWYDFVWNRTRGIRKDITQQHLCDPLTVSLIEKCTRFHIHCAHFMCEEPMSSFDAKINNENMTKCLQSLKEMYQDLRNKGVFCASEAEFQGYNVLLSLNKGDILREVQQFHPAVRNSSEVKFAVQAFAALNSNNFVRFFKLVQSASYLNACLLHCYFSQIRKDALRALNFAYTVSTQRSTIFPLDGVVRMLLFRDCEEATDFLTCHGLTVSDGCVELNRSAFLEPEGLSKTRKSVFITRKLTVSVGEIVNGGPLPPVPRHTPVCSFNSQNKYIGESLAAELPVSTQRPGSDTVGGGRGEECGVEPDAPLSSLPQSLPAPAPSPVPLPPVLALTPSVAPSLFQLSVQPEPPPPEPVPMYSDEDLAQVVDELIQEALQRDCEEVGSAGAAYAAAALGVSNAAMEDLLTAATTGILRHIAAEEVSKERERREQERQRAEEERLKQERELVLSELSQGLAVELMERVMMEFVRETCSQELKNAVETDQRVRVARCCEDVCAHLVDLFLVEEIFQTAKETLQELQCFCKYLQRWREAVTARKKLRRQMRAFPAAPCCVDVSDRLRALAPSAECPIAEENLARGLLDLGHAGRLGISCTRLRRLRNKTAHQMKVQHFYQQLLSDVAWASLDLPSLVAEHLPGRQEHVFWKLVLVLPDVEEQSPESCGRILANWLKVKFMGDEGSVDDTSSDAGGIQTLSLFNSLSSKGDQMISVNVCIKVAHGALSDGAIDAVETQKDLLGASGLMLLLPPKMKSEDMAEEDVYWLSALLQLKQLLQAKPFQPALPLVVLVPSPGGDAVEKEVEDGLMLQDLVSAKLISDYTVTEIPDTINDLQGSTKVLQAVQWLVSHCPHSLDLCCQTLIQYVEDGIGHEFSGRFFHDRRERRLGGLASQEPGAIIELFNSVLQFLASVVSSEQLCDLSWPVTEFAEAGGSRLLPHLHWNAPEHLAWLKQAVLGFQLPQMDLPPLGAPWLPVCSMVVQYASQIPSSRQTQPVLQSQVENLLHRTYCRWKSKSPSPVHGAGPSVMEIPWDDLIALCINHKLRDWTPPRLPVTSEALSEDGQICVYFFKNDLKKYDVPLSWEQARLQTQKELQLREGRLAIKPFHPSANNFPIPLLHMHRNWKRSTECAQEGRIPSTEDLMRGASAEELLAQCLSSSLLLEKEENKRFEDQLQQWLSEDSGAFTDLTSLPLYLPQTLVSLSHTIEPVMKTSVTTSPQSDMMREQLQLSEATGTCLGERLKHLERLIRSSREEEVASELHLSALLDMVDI
UniProt Q9NPJ6: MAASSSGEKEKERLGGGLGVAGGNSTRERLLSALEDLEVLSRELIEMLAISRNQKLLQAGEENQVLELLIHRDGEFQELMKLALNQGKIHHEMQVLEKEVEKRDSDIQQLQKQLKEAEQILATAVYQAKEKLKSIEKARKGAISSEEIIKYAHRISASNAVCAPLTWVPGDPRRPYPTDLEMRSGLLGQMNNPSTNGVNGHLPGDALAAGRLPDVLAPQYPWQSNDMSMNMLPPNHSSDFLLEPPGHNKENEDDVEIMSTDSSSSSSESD
UniProt O43513: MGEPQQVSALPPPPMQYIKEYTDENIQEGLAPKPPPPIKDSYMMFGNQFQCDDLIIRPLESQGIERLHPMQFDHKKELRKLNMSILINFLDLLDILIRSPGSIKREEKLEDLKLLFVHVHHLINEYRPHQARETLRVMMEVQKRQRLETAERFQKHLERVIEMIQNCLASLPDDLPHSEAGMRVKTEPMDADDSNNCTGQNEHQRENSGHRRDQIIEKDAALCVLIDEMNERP
UniProt Q6N075: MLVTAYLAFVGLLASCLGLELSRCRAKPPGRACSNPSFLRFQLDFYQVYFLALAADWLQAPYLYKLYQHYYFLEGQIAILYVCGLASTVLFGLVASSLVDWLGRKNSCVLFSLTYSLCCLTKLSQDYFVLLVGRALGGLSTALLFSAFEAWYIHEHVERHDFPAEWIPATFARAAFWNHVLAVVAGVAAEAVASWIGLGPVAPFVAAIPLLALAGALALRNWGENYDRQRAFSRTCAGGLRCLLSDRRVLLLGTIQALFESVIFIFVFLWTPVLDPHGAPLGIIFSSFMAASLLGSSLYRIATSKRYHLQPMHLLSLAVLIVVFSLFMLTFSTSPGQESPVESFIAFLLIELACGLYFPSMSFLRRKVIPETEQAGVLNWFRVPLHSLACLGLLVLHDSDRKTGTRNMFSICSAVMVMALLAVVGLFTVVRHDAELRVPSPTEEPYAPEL
UniProt Q6P9B6: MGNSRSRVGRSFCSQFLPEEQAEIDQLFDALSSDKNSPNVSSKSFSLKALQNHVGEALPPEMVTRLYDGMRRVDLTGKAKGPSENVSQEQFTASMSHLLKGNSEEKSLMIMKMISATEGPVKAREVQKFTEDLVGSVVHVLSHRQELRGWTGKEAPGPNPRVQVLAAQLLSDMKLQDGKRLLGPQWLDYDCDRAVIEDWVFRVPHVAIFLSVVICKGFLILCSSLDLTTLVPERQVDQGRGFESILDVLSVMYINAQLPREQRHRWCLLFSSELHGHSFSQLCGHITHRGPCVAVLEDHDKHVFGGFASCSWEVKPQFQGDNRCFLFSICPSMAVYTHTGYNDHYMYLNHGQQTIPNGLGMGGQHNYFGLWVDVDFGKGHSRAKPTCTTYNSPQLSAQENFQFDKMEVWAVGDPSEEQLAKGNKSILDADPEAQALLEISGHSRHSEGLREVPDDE
UniProt Q9Y6X3: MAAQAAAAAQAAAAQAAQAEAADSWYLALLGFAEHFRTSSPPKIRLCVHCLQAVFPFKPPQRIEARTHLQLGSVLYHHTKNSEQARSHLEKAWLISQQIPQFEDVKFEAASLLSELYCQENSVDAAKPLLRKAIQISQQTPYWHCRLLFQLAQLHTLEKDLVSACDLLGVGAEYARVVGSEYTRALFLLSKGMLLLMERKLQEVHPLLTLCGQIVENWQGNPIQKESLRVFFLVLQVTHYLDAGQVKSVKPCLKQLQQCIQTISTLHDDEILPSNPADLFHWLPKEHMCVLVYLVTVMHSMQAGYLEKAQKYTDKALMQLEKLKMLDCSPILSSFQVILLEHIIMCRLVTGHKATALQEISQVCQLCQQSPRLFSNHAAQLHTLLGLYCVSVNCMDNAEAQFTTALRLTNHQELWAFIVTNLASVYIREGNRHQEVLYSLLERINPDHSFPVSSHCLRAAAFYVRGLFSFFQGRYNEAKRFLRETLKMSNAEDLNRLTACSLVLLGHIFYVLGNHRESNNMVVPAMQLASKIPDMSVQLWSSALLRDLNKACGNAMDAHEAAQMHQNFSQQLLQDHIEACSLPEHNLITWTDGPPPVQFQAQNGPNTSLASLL
UniProt Q5SR56: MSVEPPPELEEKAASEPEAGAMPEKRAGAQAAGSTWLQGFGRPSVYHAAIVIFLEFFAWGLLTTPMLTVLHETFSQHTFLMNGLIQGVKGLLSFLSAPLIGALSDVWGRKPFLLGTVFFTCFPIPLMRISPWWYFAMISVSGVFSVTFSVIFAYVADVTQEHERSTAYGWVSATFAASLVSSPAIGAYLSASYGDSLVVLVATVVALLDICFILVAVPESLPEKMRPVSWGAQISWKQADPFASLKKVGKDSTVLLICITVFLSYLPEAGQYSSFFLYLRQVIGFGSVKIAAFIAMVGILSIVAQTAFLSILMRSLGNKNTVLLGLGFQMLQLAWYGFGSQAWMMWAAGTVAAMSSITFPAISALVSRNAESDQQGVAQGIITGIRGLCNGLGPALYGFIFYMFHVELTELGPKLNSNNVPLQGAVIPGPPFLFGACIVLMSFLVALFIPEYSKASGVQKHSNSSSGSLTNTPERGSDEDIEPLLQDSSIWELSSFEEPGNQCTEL

[2] = compound: CC1=C(SC2=C1C(=N[C@H](C3=NN=C(N32)C)CC(=O)N)C4=CC=C(C=C4)Cl)C
Procedure, shortened: as §1

[3] = compound: CC1=C2C(=CC=C1)N=C(N(C2=O)C3=CC=CC=C3C)CN4C=NC5=C(N=CN=C54)N
Procedure, shortened: as §1

[4] = compound: Cc1sc2c(c1C)C(c1ccc(Cl)cc1)=N[C@@H](CC(=O)OC(C)(C)C)c1nnc(C)n1-2
Procedure, shortened: as §1

[5] = compound: c1ccc([C@@H]2C[C@H]2NC2CCNCC2)cc1
Procedure, shortened: as §1

Target	log2 fold change [1]	log2 fold change [2]	log2 fold change [3]	log2 fold change [4]	log2 fold change [5]
MCMBP (UniProt Q9BTE3)	inactive: -0.016	inactive: 0.035	inactive: 0.019	inactive: -0.013	inactive: 0.057
METTL26 (UniProt Q96S19)	inactive: -0.046	inactive: 0.001	inactive: 0.062	inactive: -0.004	inactive: -0.053
MCCC1 (UniProt Q96RQ3)	inactive: -0.063	inactive: 0.015	inactive: 0.046	inactive: 0.002	inactive: 0.059
MCM4 (UniProt P33991)	inactive: 0.027	inactive: 0.036	inactive: 0.016	inactive: -0.037	inactive: 0.055
MCCC2 (UniProt Q9HCC0)	inactive: 0.05	inactive: -0.005	inactive: -0.011	inactive: -0.002	inactive: 0.002
MFF isoform 2 (UniProt Q9GZY8)	inactive: 0.044	inactive: -0.029	inactive: -0.009	inactive: -0.049	inactive: -0.125
MBIP (UniProt Q9NS73)	inactive: 0.13	inactive: -0.042	inactive: 0.023	inactive: -0.086	inactive: 0.016
MED14 (UniProt O60244)	inactive: -0.037	inactive: 0.035	inactive: 0.034	inactive: -0.029	inactive: 0
MEF2D (UniProt Q14814)	inactive: 0.055	inactive: -0.06	inactive: 0.028	inactive: -0.005	inactive: 0
METTL18 (UniProt O95568)	inactive: 0.005	inactive: 0.037	inactive: 0.004	inactive: -0.035	inactive: -0.077
MBTPS1 (UniProt Q14703)	active: -0.317	inactive: 0.141	inactive: 0.079	inactive: -0.063	inactive: 0.017
MCRIP1 (UniProt I3L4Q0)	inactive: 0.031	inactive: -0.11	inactive: -0.027	inactive: -0.052	inactive: 0.022
MCOLN1 (UniProt Q9GZU1)	inactive: 0.085	inactive: 0.01	inactive: 0.006	inactive: -0.142	inactive: -0.003
MCU (UniProt Q8NE86)	inactive: 0.021	inactive: 0.028	inactive: -0.031	inactive: -0.023	inactive: 0.015
MELTF (UniProt P08582)	inactive: -0.091	inactive: 0.013	inactive: -0.022	–	inactive: 0.032
MBOAT7 (UniProt Q96N66)	inactive: -0.088	inactive: 0.006	inactive: 0.088	inactive: -0.018	inactive: -0.014
MFSD8 (UniProt Q8NHS3)	inactive: 0.015	inactive: 0.026	inactive: 0.006	–	inactive: -0.069
MED8 isoform 2 (UniProt Q96G25)	inactive: -0.047	inactive: -0.033	inactive: -0.048	inactive: -0.039	inactive: 0.063
MCM7 (UniProt P33993)	inactive: 0.014	inactive: -0.001	inactive: -0.036	inactive: 0.012	inactive: 0.035

Whole records, quoted from the list. Values in the order: log2 fold change [1] | log2 fold change [2] | log2 fold change [3] | log2 fold change [4] | log2 fold change [5]
MELTF (UniProt P08582) is listed as inactive: -0.091 | inactive: 0.013 | inactive: -0.022 | – | inactive: 0.032
MCMBP (UniProt Q9BTE3) is listed as inactive: -0.016 | inactive: 0.035 | inactive: 0.019 | inactive: -0.013 | inactive: 0.057
MED8 isoform 2 (UniProt Q96G25) is listed as inactive: -0.047 | inactive: -0.033 | inactive: -0.048 | inactive: -0.039 | inactive: 0.063
MCM4 (UniProt P33991) is listed as inactive: 0.027 | inactive: 0.036 | inactive: 0.016 | inactive: -0.037 | inactive: 0.055

(listing goes on)

Target	log2 fold change [1]	log2 fold change [2]	log2 fold change [3]	log2 fold change [4]	log2 fold change [5]
MFN2 (UniProt O95140)	inactive: -0.001	inactive: -0.002	inactive: 0.046	inactive: 0.016	inactive: 0.101
MED21 (UniProt Q13503)	inactive: -0.001	inactive: -0.021	–	inactive: 0.024	inactive: 0.164
MFN1 (UniProt Q8IWA4)	inactive: -0.097	inactive: 0.073	inactive: 0.004	inactive: 0.005	inactive: -0.077
MED19 (UniProt A0JLT2)	inactive: -0.103	inactive: 0.161	inactive: 0.019	inactive: -0.009	inactive: 0.054
MCRS1 isoform 2 (UniProt Q96EZ8)	inactive: 0.051	inactive: 0	inactive: 0.008	–	inactive: 0.065
MED24 (UniProt O75448)	inactive: -0.024	inactive: -0.027	inactive: 0.031	inactive: 0.019	inactive: -0.007
MFSD1 isoform 6 (UniProt Q9H3U5)	inactive: -0.143	inactive: 0.265	inactive: -0.175	inactive: 0.03	inactive: -0.037
MED30 (UniProt Q96HR3)	inactive: 0.061	inactive: -0.103	inactive: 0.01	inactive: -0.022	inactive: -0.016
MCM3AP (UniProt O60318)	inactive: -0.043	inactive: -0.006	inactive: -0.021	inactive: 0.021	inactive: 0.112
MCAM (UniProt P43121)	inactive: -0.01	inactive: 0.012	inactive: 0.009	inactive: 0.007	inactive: -0.019
MED4 (UniProt Q9NPJ6)	inactive: 0.026	inactive: -0.01	inactive: 0.006	inactive: -0.057	inactive: -0.029
MFAP1 (UniProt P55081)	inactive: 0.053	inactive: -0.011	inactive: -0.039	inactive: 0.018	inactive: -0.058
MED17 (UniProt Q9NVC6)	inactive: 0.009	inactive: 0.021	inactive: 0.016	inactive: 0.021	inactive: 0.02
METTL1 (UniProt Q9UBP6)	inactive: 0.046	inactive: -0.007	inactive: 0.044	inactive: 0.025	inactive: 0.018
MDC1 (UniProt Q14676)	inactive: 0.01	inactive: 0.025	inactive: 0.019	inactive: -0.021	inactive: 0.026
MAX (UniProt P61244)	inactive: 0.108	inactive: -0.067	inactive: -0.011	inactive: -0.014	inactive: -0.018
MEF2A isoform 2 (UniProt Q02078)	inactive: 0.09	inactive: -0.026	inactive: 0.134	–	inactive: -0.022
MED7 (UniProt O43513)	inactive: -0.147	inactive: 0.097	inactive: 0.015	inactive: 0.007	inactive: -0.011
ME1 (UniProt P48163)	inactive: 0.009	inactive: 0.032	inactive: -0.009	inactive: -0.007	inactive: -0.002

Target	log2 fold change [1]	log2 fold change [2]	log2 fold change [3]	log2 fold change [4]	log2 fold change [5]
MFSD5 isoform 2 (UniProt Q6N075)	inactive: 0.016	inactive: 0.026	inactive: -0.002	inactive: -0.088	inactive: -0.162
MED26 (UniProt O95402)	inactive: -0.059	inactive: -0.024	inactive: 0.065	–	inactive: -0.076
MEX3D isoform 3 (UniProt Q86XN8)	inactive: -0.049	inactive: -0.012	inactive: 0.034	inactive: 0.022	inactive: -0.01
MAT2B (UniProt Q9NZL9)	inactive: -0.008	inactive: 0.014	inactive: -0.044	inactive: -0.003	inactive: -0.002
MCL1 (UniProt Q07820)	inactive: 0.003	inactive: 0.021	inactive: -0.029	inactive: 0.106	inactive: -0.08
MDM2 isoform 11 (UniProt Q00987)	inactive: 0.109	inactive: -0.092	inactive: -0.007	–	inactive: -0.158
METTL7A (UniProt Q9H8H3)	inactive: 0.069	inactive: -0.059	inactive: -0.078	inactive: -0.008	inactive: -0.074
MEAK7 (UniProt Q6P9B6)	inactive: -0.021	inactive: 0.057	inactive: 0.047	inactive: 0.012	inactive: 0.019
MDH2 (UniProt P40926)	inactive: 0.014	inactive: 0.004	inactive: -0.017	inactive: 0.005	inactive: 0.049
MCTS1 isoform 3 (UniProt Q9ULC4)	inactive: 0.022	inactive: 0.019	inactive: -0.014	inactive: 0.031	inactive: 0.001
MCM2 (UniProt P49736)	inactive: -0.011	inactive: 0.022	inactive: 0.028	inactive: -0.004	inactive: -0.004
MED23 (UniProt Q9ULK4)	inactive: -0.013	inactive: 0.011	inactive: -0.013	inactive: -0.016	inactive: 0.048
MAU2 (UniProt Q9Y6X3)	inactive: 0.083	inactive: 0.028	inactive: 0.015	–	inactive: 0.169
MERTK (UniProt Q12866)	inactive: 0.014	inactive: -0.054	inactive: 0.06	inactive: -0.012	inactive: -0.043
MFSD14B (UniProt Q5SR56)	–	–	–	–	inactive: -0.011
METTL17 isoform 3 (UniProt Q9H7H0)	–	–	–	–	inactive: -0.015
MDM1 (UniProt Q8TC05)	–	–	inactive: 0.018	inactive: -0.116	active: -0.866
MCEMP1 (UniProt Q8IX19)	–	–	–	inactive: 0.078	–
MFAP3 (UniProt P55082)	–	–	inactive: -0.04	inactive: 0.04	inactive: -0.171
